According to publication PMC7468482:
These are yes or no findings as the source states them, for the method shown. Some results given as binding are weak or reduced against the parent protein; the word gives no strength.

Protein sequences, listed by entry. Tags and fused reporters are not part of them. Lines headed by an entry give the natural chain unless they say otherwise; changes in a name come on top.
UniProt Q9FIP9: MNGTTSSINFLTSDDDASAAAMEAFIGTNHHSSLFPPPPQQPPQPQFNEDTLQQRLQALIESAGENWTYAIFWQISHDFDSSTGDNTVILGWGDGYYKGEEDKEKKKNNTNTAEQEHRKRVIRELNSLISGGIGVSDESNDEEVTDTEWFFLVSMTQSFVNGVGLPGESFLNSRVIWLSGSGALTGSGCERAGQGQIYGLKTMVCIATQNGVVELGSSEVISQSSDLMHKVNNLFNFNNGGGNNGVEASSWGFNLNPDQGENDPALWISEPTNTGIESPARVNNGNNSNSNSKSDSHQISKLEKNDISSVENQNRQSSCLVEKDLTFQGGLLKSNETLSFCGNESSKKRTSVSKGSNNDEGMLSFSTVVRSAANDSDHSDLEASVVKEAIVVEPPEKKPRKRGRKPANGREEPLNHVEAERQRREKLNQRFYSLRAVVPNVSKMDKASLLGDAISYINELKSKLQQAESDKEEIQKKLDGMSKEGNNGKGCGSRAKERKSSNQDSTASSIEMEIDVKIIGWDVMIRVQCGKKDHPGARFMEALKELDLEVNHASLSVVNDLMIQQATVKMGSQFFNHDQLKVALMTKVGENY
UniProt Q7XA73: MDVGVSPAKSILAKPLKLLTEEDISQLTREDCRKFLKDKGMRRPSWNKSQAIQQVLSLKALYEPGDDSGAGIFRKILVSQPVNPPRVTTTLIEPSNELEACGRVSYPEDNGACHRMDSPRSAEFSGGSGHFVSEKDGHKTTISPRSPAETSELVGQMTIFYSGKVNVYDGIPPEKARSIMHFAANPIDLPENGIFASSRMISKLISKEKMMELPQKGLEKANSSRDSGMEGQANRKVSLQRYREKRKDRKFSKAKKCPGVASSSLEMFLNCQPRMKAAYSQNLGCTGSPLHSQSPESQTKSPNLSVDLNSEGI
UniProt Q8GY55: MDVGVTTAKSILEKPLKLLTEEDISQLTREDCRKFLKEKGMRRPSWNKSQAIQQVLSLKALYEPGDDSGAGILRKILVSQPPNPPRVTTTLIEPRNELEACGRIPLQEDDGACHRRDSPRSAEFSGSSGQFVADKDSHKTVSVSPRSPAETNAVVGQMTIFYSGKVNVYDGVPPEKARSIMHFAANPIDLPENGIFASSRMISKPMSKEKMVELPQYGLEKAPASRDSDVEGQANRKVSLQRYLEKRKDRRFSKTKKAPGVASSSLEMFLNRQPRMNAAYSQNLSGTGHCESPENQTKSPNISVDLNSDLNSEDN

Target: MYC3 transcription factor (Arabidopsis thaliana) (UniProt Q9FIP9)
Test: two-hybrid; GAL4 system, S. cerevisiae PJ69-4A co-transformed with bait and prey (pGAL424gate, pGBT9gate); 10- or 100-fold dilutions dropped on SD-Leu-Trp (control) and SD-Leu-Trp-His (selective); cultures grown at 30°C

## mutant PPD1 (Y242F and R243L) (from UniProt Q7XA73 1-313)
  binding: binds

## mutant PPD2 (Y243F) (from UniProt Q8GY55 1-315)
  binding: binds
